In PubChem BioAssay AID212 (DTP/NCI, 2004):
The list does not hold the whole screen: it gathers tests that were run many times, whatever their T/C, doses with no T/C, and many T/C values between a quarter and a half above the control. Further doses and runs are listed elsewhere. T/C is the treated group as % of the vehicle group. Schedule codes are those of the source, taken here to give the interval after Q, in days (D) or hours (H), and the number of doses after X. Some T/C values are followed by the survivors on the day toxicity was checked, most often the fifth; where none is given, no animal had died by that day. Some entries were tested several times; their values stand side by side, smallest first. Some entries give survivors of the animals treated and no T/C: the source files T/C as zero there, which appears to mark a toxic dose or a test without result, not a measured value. Survivors were counted at the toxicity check, usually on the fifth day, unless a day is given; later deaths do not show.

Tested on: BDF1 mice, colon carcinoma 38 sc, T/C %
Test: NCI In Vivo Anticancer Drug Screen. Data for tumor model Colon Carcinoma 38 (subcutaneous) in B6D2F1 (BDF1) mice
Details: T/C endpoint: median tumor weight (est.), higher T/C = larger tumour; for T/C: evaluated on day 20
Summary of the method: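 Compound antitumor activity was assessed in mice carrying transplantable tumors. Survival or tumor size was recorded, and each value is the treated-group measurement divided by that of the vehicle-treated control group.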

[1] = dose: 12.5 mg/kg/injection, schedule: Q07DX002 (ip), vehicle: saline
[2] = dose: 25.0 mg/kg/injection, schedule: Q07DX002 (ip), vehicle: saline
[3] = dose: 50.0 mg/kg/injection, schedule: Q07DX002 (ip), vehicle: saline
[4] = dose: 100.0 mg/kg/injection, schedule: Q07DX002 (ip), vehicle: saline
[5] = dose: 200.0 mg/kg/injection, schedule: Q07DX002 (ip), vehicle: saline
[6] = dose: 400.0 mg/kg/injection, schedule: Q07DX002 (ip), vehicle: saline with Tween-80

COc1cc2c[n+](C)c3c4cc5c(cc4ccc3c2cc1OC)OCO5
T/C (dose: 80.0 mg/kg/injection, schedule: Q07DX003 (ip), vehicle: saline with Tween-80): 125 % of control

CC[C@](C)(O)C(=O)O[C@H]1C(=O)O[C@@H]2C[C@H]3C(C)=CC(=O)[C@@H](O)[C@]3(C)[C@H]3[C@@]4(O)OC[C@]32[C@@H]1[C@@H](C)[C@H]4O
survivor count (dose: 4.0 mg/kg/injection, schedule: Q07DX002 (ip), vehicle: saline with Tween-80): 3 of 10 on day 20

OCC1OC(n2cnc3c(Cl)ncnc32)C(O)C1O (stereo not drawn)
T/C (dose: 6.25 mg/kg/injection, schedule: Q07DX002 (ip), vehicle: saline): 136 % of control | survivor count [1]: 6 of 10 on day 20 | T/C [2]: 143 % of control [8 of 10 alive on day 20] | T/C [3]: 135 % of control [9 of 10 alive on day 20] | T/C [4]: 96 [8 of 10 alive on day 20], 101, 134, 163 % of control | T/C [5]: 104, 112 [8 of 10 alive on day 20], 136, 159 % of control | T/C (dose: 800.0 mg/kg/injection, schedule: Q07DX002 (ip), vehicle: saline): 141 % of control [9 of 10 alive on day 20]

COc1cc(NS(C)(=O)=O)ccc1Nc1c2ccccc2nc2ccccc12
T/C (dose: 1.0 mg/kg/injection, schedule: Q07DX002 (ip), vehicle: other): 138 % of control | survivor count (dose: 16.0 mg/kg/injection, schedule: Q07DX002 (ip), vehicle: other): 4 of 10 and 5 of 10 | survivor count (dose: 16.0 mg/kg/injection, schedule: Q07DX003 (ip), vehicle: other): 2 of 10

N/C(=N\OC(=O)Nc1ccc(CSc2ccc(Cl)cc2)o1)c1ccccn1
survivor count (dose: 200.0 mg/kg/injection, schedule: Q07DX002 (ip), vehicle: Klucel (hydroxypropylcellulose) (HPC)): 6 of 10 on day 20 | survivor count (dose: 400.0 mg/kg/injection, schedule: Q07DX002 (ip), vehicle: Klucel (hydroxypropylcellulose) (HPC)): 0 of 10 on day 20

Cc1ccc(-c2cc(=O)c3cccc(CC(=O)O)c3o2)cc1
survivor count [6]: 1 of 10 on day 20

NC(=O)c1ncn(C2OC(CO)C(O)C2O)n1 (stereo not drawn)
T/C [1]: 88, 89, 111, 150 % of control | T/C [2]: 71, 83, 107, 124 % of control | T/C [3]: 82, 88, 104, 159 % of control | T/C [4]: 65 [9 of 10 alive on day 20], 93, 106, 129 % of control | T/C [5]: 65, 75 [9 of 10 alive on day 20], 79, 90 % of control | T/C (dose: 400.0 mg/kg/injection, schedule: Q07DX002 (ip), vehicle: saline): 65, 80, 108 [9 of 10 alive on day 20], 151 % of control [9 of 10 alive on day 20]

CCCCOCN(COCCCC)C(C)Cc1ccccc1 (stereo not drawn)
survivor count [6]: 3 of 10 on day 20 and 6 of 10 on day 20 | survivor count (dose: 800.0 mg/kg/injection, schedule: Q07DX002 (ip), vehicle: saline with Tween-80): 0 of 10 on day 20

C[C@]12C=CC(=O)C=C1CC[C@@H]1[C@@H]2C(=O)C[C@@]2(C)[C@H]1CC[C@]2(O)C(=O)CO
T/C (dose: 100.0 mg/kg/injection, schedule: Q07DX002 (ip), vehicle: Klucel (hydroxypropylcellulose) (HPC)): 134 % of control

O=C(Nc1ccccc1)c1c(O)[nH]c(=S)[nH]c1=O
survivor count (dose: 112.0 mg/kg/injection, schedule: Q07DX002 (ip), vehicle: saline with Tween-80): 6 of 10 on day 20 | survivor count (dose: 225.0 mg/kg/injection, schedule: Q07DX002 (ip), vehicle: saline with Tween-80): 4 of 10 on day 20 | survivor count (dose: 450.0 mg/kg/injection, schedule: Q07DX002 (ip), vehicle: saline with Tween-80): 0 of 10 on day 20 and 1 of 10 on day 20 | survivor count (dose: 900.0 mg/kg/injection, schedule: Q07DX002 (ip), vehicle: saline with Tween-80): 0 of 10 on day 20
